# Test results from the supplement of paper PMC5355238.
# Structures can show the parent of a compound that is named as a salt. The list shows a part of the results. Most entries show no effect beyond the scatter of the controls.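 Reh, a human leukemia cell line, is read out by flow cytometry as the median γH2AX antibody signal in S-phase cells; the score counts standard deviations from the median difference of each paired plate set. Scores above 2.5 were candidate hits; scores below -2 mark compounds lowering MK1775-induced damage.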
# System: Reh
# Assay: Z' of S-phase gammaH2AX difference (drug + MK1775 minus drug alone) (Z-score); higher = stronger synergistic S-phase DNA damage with MK1775
# Conditions: MK1775 concentration 400 nM; first compound 10 µM; 4 h
row,SMILES,Z' of S-phase gammaH2AX difference (Z-score)
1,OCCN1CCN(CCCN2c3ccccc3Sc3ccc(Cl)cc32)CC1 [Perphenazine] + C=CCn1c(=O)c2cnc(Nc3ccc(N4CCN(C)CC4)cc3)nc2n1-c1cccc(C(C)(C)O)n1 [MK1775],inactive: 0.296
2,"NCCCCCCCCCCN [1,10-Diaminodecane] + C=CCn1c(=O)c2cnc(Nc3ccc(N4CCN(C)CC4)cc3)nc2n1-c1cccc(C(C)(C)O)n1 [MK1775]",inactive: -0.44
3,COC1=CC(c2cc3ccccc3[nH]2)=N/C1=C\c1[nH]c(C)cc1C [Obatoclax mesylate (GX15-070)] + C=CCn1c(=O)c2cnc(Nc3ccc(N4CCN(C)CC4)cc3)nc2n1-c1cccc(C(C)(C)O)n1 [MK1775],inactive: 0.0924
4,"O=c1oc(Cl)c(Cl)c2ccccc12 [3,4-Dichloroisocoumarin] + C=CCn1c(=O)c2cnc(Nc3ccc(N4CCN(C)CC4)cc3)nc2n1-c1cccc(C(C)(C)O)n1 [MK1775]",inactive: 0.197
5,NS(=O)(=O)c1cc2c(cc1Cl)NCNS2(=O)=O [Hydrochlorothiazide] + C=CCn1c(=O)c2cnc(Nc3ccc(N4CCN(C)CC4)cc3)nc2n1-c1cccc(C(C)(C)O)n1 [MK1775],inactive: 0.789
6,CN(C)CCC=C1c2ccccc2C=Cc2ccccc21 [Cyclobenzaprine hydrochloride] + C=CCn1c(=O)c2cnc(Nc3ccc(N4CCN(C)CC4)cc3)nc2n1-c1cccc(C(C)(C)O)n1 [MK1775],inactive: -0.444
7,CNNCc1ccc(C(=O)NC(C)C)cc1 [Procarbazine hydrochloride (Matulane)] + C=CCn1c(=O)c2cnc(Nc3ccc(N4CCN(C)CC4)cc3)nc2n1-c1cccc(C(C)(C)O)n1 [MK1775],inactive: 0.231
8,CC(=O)Oc1cc(C(C)C)c(OCCN(C)C)cc1C [Moxisylyte hydrochloride] + C=CCn1c(=O)c2cnc(Nc3ccc(N4CCN(C)CC4)cc3)nc2n1-c1cccc(C(C)(C)O)n1 [MK1775],inactive: 0.0825
9,CC(c1cc2ccccc2s1)N(O)C(N)=O (stereo not given) [Zileuton] + C=CCn1c(=O)c2cnc(Nc3ccc(N4CCN(C)CC4)cc3)nc2n1-c1cccc(C(C)(C)O)n1 [MK1775],inactive: 0.162
10,CC1=C(/C=C/C(C)=C/C=C/C(C)=C/C(=O)Nc2ccc(O)cc2)C(C)(C)CCC1 [Retinoic acid p-hydroxyanilide] + C=CCn1c(=O)c2cnc(Nc3ccc(N4CCN(C)CC4)cc3)nc2n1-c1cccc(C(C)(C)O)n1 [MK1775],inactive: -0.585
11,CC1=C(/C=C/C(C)=C/C=C/C(C)=C/C(=O)Nc2ccc(O)cc2)C(C)(C)CCC1 [Fenretinide] + C=CCn1c(=O)c2cnc(Nc3ccc(N4CCN(C)CC4)cc3)nc2n1-c1cccc(C(C)(C)O)n1 [MK1775],inactive: -0.319
12,COc1cc2c(cc1OC)[C@@H](c1ccccc1)CN(C)CC2 + C=CCn1c(=O)c2cnc(Nc3ccc(N4CCN(C)CC4)cc3)nc2n1-c1cccc(C(C)(C)O)n1 [MK1775],inactive: -0.2
13,Cn1cc(C(=O)OCC2CCN(CCNS(C)(=O)=O)CC2)c2ccccc21 + C=CCn1c(=O)c2cnc(Nc3ccc(N4CCN(C)CC4)cc3)nc2n1-c1cccc(C(C)(C)O)n1 [MK1775],inactive: -0.147
14,CNCC[C@H](Oc1ccc(C(F)(F)F)cc1)c1ccccc1 [S-(+)-Fluoxetine hydrochloride] + C=CCn1c(=O)c2cnc(Nc3ccc(N4CCN(C)CC4)cc3)nc2n1-c1cccc(C(C)(C)O)n1 [MK1775],inactive: -0.785
15,CC(=O)OCC(=O)[C@@]1(O)CC[C@H]2[C@@H]3CCC4=CC(=O)CC[C@]4(C)[C@H]3C(=O)C[C@@]21C [Cortisone 21-acetate] + C=CCn1c(=O)c2cnc(Nc3ccc(N4CCN(C)CC4)cc3)nc2n1-c1cccc(C(C)(C)O)n1 [MK1775],inactive: -0.02
16,O=C1c2ccccc2C(=O)c2c(NCCc3ccc(O)cc3)ccc(NCCc3ccc(O)cc3)c21 + C=CCn1c(=O)c2cnc(Nc3ccc(N4CCN(C)CC4)cc3)nc2n1-c1cccc(C(C)(C)O)n1 [MK1775],inactive: -0.0673
17,O=C1c2c(O)cc(O)cc2OC(c2ccc(O)c(O)c2)C1O (stereo not given) [(?)-Taxifolin] + C=CCn1c(=O)c2cnc(Nc3ccc(N4CCN(C)CC4)cc3)nc2n1-c1cccc(C(C)(C)O)n1 [MK1775],inactive: -1.33
18,C[C@H]1C[C@H]2[C@@H]3CCC4=CC(=O)C=C[C@]4(C)[C@@]3(Cl)[C@@H](O)C[C@]2(C)[C@@]1(O)C(=O)CO [Beclomethasone] + C=CCn1c(=O)c2cnc(Nc3ccc(N4CCN(C)CC4)cc3)nc2n1-c1cccc(C(C)(C)O)n1 [MK1775],inactive: -0.0869

row,SMILES,Z' of S-phase gammaH2AX difference (Z-score)
1,COc1cc2nc(N3CCN(C(=O)C4CCCO4)CC3)nc(N)c2cc1OC (stereo not given) [Terazosin hydrochloride] + C=CCn1c(=O)c2cnc(Nc3ccc(N4CCN(C)CC4)cc3)nc2n1-c1cccc(C(C)(C)O)n1 [MK1775],inactive: 0.393
2,Oc1ccc(O)cc1 [Hydroquinone] + C=CCn1c(=O)c2cnc(Nc3ccc(N4CCN(C)CC4)cc3)nc2n1-c1cccc(C(C)(C)O)n1 [MK1775],inactive: -0.969
3,CN1CCN(c2cccc(Nc3nc4c(-c5ccc(S(C)(=O)=O)cc5)cccn4n3)c2)CC1 + C=CCn1c(=O)c2cnc(Nc3ccc(N4CCN(C)CC4)cc3)nc2n1-c1cccc(C(C)(C)O)n1 [MK1775],inactive: 0.00517
4,Cc1nc(N=Nc2ccc(C(=O)O)cc2)c(COP(=O)(O)O)c(C=O)c1O + C=CCn1c(=O)c2cnc(Nc3ccc(N4CCN(C)CC4)cc3)nc2n1-c1cccc(C(C)(C)O)n1 [MK1775],inactive: -0.466
5,CNCCC=C1c2ccccc2CCc2ccccc21 [Nortriptyline hydrochloride] + C=CCn1c(=O)c2cnc(Nc3ccc(N4CCN(C)CC4)cc3)nc2n1-c1cccc(C(C)(C)O)n1 [MK1775],inactive: -0.267
6,CCc1c2c(nc3ccc(OC(=O)N4CCC(N5CCCCC5)CC4)cc13)-c1cc3c(c(=O)n1C2)COC(=O)[C@]3(O)CC [Irinotecan HCl Trihydrate (Campto)] + C=CCn1c(=O)c2cnc(Nc3ccc(N4CCN(C)CC4)cc3)nc2n1-c1cccc(C(C)(C)O)n1 [MK1775],active: 6.5
7,Cc1ccc(/C(=C\CN2CCCC2)c2ccccn2)cc1 [Triprolidine hydrochloride] + C=CCn1c(=O)c2cnc(Nc3ccc(N4CCN(C)CC4)cc3)nc2n1-c1cccc(C(C)(C)O)n1 [MK1775],inactive: -0.27
8,O=c1onc2n1-c1cc(Br)ccc1OC2 + C=CCn1c(=O)c2cnc(Nc3ccc(N4CCN(C)CC4)cc3)nc2n1-c1cccc(C(C)(C)O)n1 [MK1775],inactive: 0.32
9,CCC[C@H](NC(=O)/C(C#N)=C/c1cccc(Br)n1)c1ccccc1 + C=CCn1c(=O)c2cnc(Nc3ccc(N4CCN(C)CC4)cc3)nc2n1-c1cccc(C(C)(C)O)n1 [MK1775],inactive: -0.39
10,"Nc1ncnc2c1ncn2[C@@H]1O[C@H](COP(=O)(O)CP(=O)(O)OP(=O)(O)O)[C@H](O)C1O (stereo partly drawn) [alpha,beta-Methylene adenosine 5'-triphosphate dilithium] + C=CCn1c(=O)c2cnc(Nc3ccc(N4CCN(C)CC4)cc3)nc2n1-c1cccc(C(C)(C)O)n1 [MK1775]",inactive: 0.00485
11,CCOc1cc2ncc(C#N)c(Nc3ccc(OCc4ccccn4)c(Cl)c3)c2cc1NC(=O)/C=C/CN(C)C [Neratinib (HKI-272)] + C=CCn1c(=O)c2cnc(Nc3ccc(N4CCN(C)CC4)cc3)nc2n1-c1cccc(C(C)(C)O)n1 [MK1775],inactive: 0.00222
12,NC(=O)c1ncn([C@@H]2O[C@H](CO)[C@@H](O)[C@H]2O)c1O [Mizoribine] + C=CCn1c(=O)c2cnc(Nc3ccc(N4CCN(C)CC4)cc3)nc2n1-c1cccc(C(C)(C)O)n1 [MK1775],inactive: -0.864
13,Cc1ccc(C(=O)Nc2ccc(S(=O)(=O)O)c3cc(S(=O)(=O)O)cc(S(=O)(=O)O)c23)cc1NC(=O)c1cccc(NC(=O)Nc2cccc(C(=O)Nc3cc(C(=O)Nc4ccc(S(=O)(=O)O)c5cc(S(=O)(=O)O)cc(S(=O)(=O)O)c45)ccc3C)c2)c1 [Suramin hexasodium] + C=CCn1c(=O)c2cnc(Nc3ccc(N4CCN(C)CC4)cc3)nc2n1-c1cccc(C(C)(C)O)n1 [MK1775],inactive: 0.319
14,N#CC(c1ccnc(NCCc2cccnc2)n1)c1nc2ccccc2s1 (stereo not given) [JNK Inhibitor V] + C=CCn1c(=O)c2cnc(Nc3ccc(N4CCN(C)CC4)cc3)nc2n1-c1cccc(C(C)(C)O)n1 [MK1775],inactive: -0.282
15,CN(N=O)C(=O)N[C@@H](C=O)[C@@H](O)[C@H](O)[C@H](O)CO [Streptozotocin (Zanosar)] + C=CCn1c(=O)c2cnc(Nc3ccc(N4CCN(C)CC4)cc3)nc2n1-c1cccc(C(C)(C)O)n1 [MK1775],inactive: 0.0584
16,Cn1cc(C2=C(c3ccc(Cl)cc3Cl)C(=O)NC2=O)c2ccccc21 + C=CCn1c(=O)c2cnc(Nc3ccc(N4CCN(C)CC4)cc3)nc2n1-c1cccc(C(C)(C)O)n1 [MK1775],inactive: -0.365
17,CC(N)(C(=O)O)c1ccc(C(=O)O)cc1 (stereo not drawn) [(?)-alpha-Methyl-4-carboxyphenylglycine] + C=CCn1c(=O)c2cnc(Nc3ccc(N4CCN(C)CC4)cc3)nc2n1-c1cccc(C(C)(C)O)n1 [MK1775],inactive: -0.65

# Part of the list above, as tab-separated lines:
row	SMILES	Z' of S-phase gammaH2AX difference (Z-score)
9	CCC[C@H](NC(=O)/C(C#N)=C/c1cccc(Br)n1)c1ccccc1 + C=CCn1c(=O)c2cnc(Nc3ccc(N4CCN(C)CC4)cc3)nc2n1-c1cccc(C(C)(C)O)n1 [MK1775]	inactive: -0.39
16	Cn1cc(C2=C(c3ccc(Cl)cc3Cl)C(=O)NC2=O)c2ccccc21 + C=CCn1c(=O)c2cnc(Nc3ccc(N4CCN(C)CC4)cc3)nc2n1-c1cccc(C(C)(C)O)n1 [MK1775]	inactive: -0.365
